These are yes or no findings as the source states them, for the method shown. Binding seen in cells or lysates may run through a third protein. Here binding means that the protein was enriched with, or labelled near, the bait; the list need not be complete. For some of these results: No binding means not detected with the bait.
B1: Chaperone protein DnaJ1 (protein, UniProt A0QQD0 1-390)
chain: MAQREWVEKDFYKELGVSSDASADEIKKAYRKLAAELHPDRNSDPGAAERFKAVSEANSVLSDPAKRKEYDETRRLFAGGFGRRFNQGGGGFGGGFGSDGVEFNLGDLFDAAGQTGGANIGDLFGGLFGRGPQQRPSRPRRGNDLETETELSFLEATKGVAMPLRLTSPAPCTNCHGSGARPGTSPKVCPSCNGSGVISRNQGAFGFSEPCTECRGSGSIIEHPCQECRGTGVTTRTRTINVRIPPGVEDGQRIRLAGQGEAGLRGAPSGDLYVTVHVRPDKVFGRDGDDLTVTVPVSFHELALGTTLSVPTLDGKVGVRVPKGTSDGRILRVRGRGVPKRSGGHGDLLVTVKVAVPPNLEGEAAEALEAYAKAERASGFDPRAGWAGNV
B2: 2-Hydroxy-6-oxo-6-phenylhexa-2,4-dienoate hydrolase (EC 3.7.1.−) (protein, UniProt A0QWD3 1-286)
chain: MQAIDYQDSLREVTTDAGVLRFHEAGDGPPLLLLHGSGPGVTGWRNYRGNLGFFAQHFRCLVLEFPGFGVSDDFGGHPMLDAQRAAVVFADALGLDRVDIIGNSMGGGVGINFAINHPDRVRHLVTIGGIGTNIFSPGPSEGIRLLQEFTEDPTRARLVDWLNSMVYDPALVTDELIEERWALATDPETLESARRMYGKAAFAAMMEMMRNADFPLPWSIMHKVKAPTLLTWGRDDRVSPLDMALVPMRTIPNAELHVFPNCGHWVMIEAKSAFERTVLSFLTQDN
B3: PhoH family protein (protein, UniProt A0R0T1 1-348)
chain: MTPRDTNADSTATAQESVRSSITVPPDIIVGLLGSADENLRAIEKVLTSDVHVRGNEVTFSGEPADVALAERVVAELVAVASSGQAVTPETVRHSVAILTGAGDESPAEVLTLDILSRRGKTIRPKTLNQKHYVDAIDAHTIVFGIGPAGTGKTYLAMAKAVNALQTKQVNRIILTRPAVEAGERLGFLPGTLSEKIDPYLRPLYDALHDMMDTELIPKLMSAGVIEVAPLAYMRGRTLNDAFIILDEAQNTTAEQMKMFLTRLGFGSKIVVTGDVTQVDLPGGATSGLRAAMQILDNIDDIHFAELTSADVVRHRLVSDIVDAYARHEEPAMLNRAQRRSSNGRPRR
B4: Aspartate aminotransferase (protein, UniProt A0QQA8 1-424)
chain: MERVTTHQLPWQSTGEHRKPRTFTQSTKLQDVLYEIRGPVHEHASRLEAEGHRILKLNIGNPAPFGFEAPDVIMRDIIQALPTAQGYSDSKGILSARRAVFTRYELVEGFPKFDVDDVYLGNGVSELITMTLQALLDNGDQVLIPAPDYPLWTASTSLAGGTPVHYLCDETQGWNPDVADIESKITERTKAIVVINPNNPTGAVYSRETLEQIVDLARKHQLLLLADEIYDKILYDDAKHISLATLAPDLLCLTFNGLSKAYRVAGYRSGWLVITGPKEHATSFIEGISLLANMRLCPNVPAQHAIQVALGGHQSIDALVLPGGRLLEQRDVAWEKLNEIPGVSCVKPRGALYAFPRLDPEVYDIHDDEQLVLDLLLQEKILLTQGTGFNWPTPDHLRIVTLPWARDLASAIERLGNFLASYRQ
B5: Magnesium chelatase (protein, UniProt A0R3L1 1-461)
chain: MVSQPKDLPRTVGELRASGHRERGVKAEIRENLLAALAERRDVWPGILGFEDTVIPQLERALIAGHDVVLLGERGQGKTRLLRALTGLLDEWTPVIAGSELGEHPYSPITPESIRRAADSGDDLPVEWRHRSERYTEKLATPDTSVADLVGDIDPIKVAEGRSLGDPETIAYGLIPRAHRGIVAVNELPDLAERIQVAMLNVMEERDIQVRGYTLRLPLDVLVVASANPEDYTNRGRIITPLKDRFGAEIRTHYPLELEAEVGVIRQEAELAAEVPEYLLAVLARFARNLRESNSIDQRSGVSARFAIAAAETVAASARHRAAILGEDDPVARVVDLGTVIDVLRGKLEFETGEEGREQAVLEHLLRRATADTAQRLLGGIDVGPLVAAIEEGSPVTTGERVSAKDVVAALPDLPAIDAIAHRLNAVSVGQRAAAIELALEALYLAKRIDKVSGEGETVYG
B6: Thioredoxin reductase (protein, UniProt A0QSL0 1-552)
chain: MILSVDDDPAVSRAVARDLRRHYGERYRIVRAESGPDALETLHELKLRGDTVAVFVADYRMPQMSGIEFLESAMDLYPMARRVLLTAYADTNAAIAAINVVDLDHYLLKPWDPPEEKLYPVIDGLLEAWHAAGDRAIPYTKVIGHQWSPRSWEVRQFLARNQHTYRAFNADEPKGRQLLEAAGLDGMQLPVVITEGGTTLVEPTDAELADMLGLSTAPSLTMYDLAVIGGGPAGLAAAVYGASEGLKTVLIEGTTTGGQASRSSRIENYLGFPTGISGAELATSARRQAERFGAEVITTREAVKLEVAGSARTITFADGDTIGARAVILATGVDYRQLPVPGCWDDPDNPVNFIGRGVYYGASVSDAAECCDEDVYIVGGANSAGQAAMFMARTARSVTLLVRGPSLEASMSYYLIQQIEDTPNIHVRTCTEVVKAIGEDDHLVGLVLENKRTGEQEEVRSSRLCCFIGATPRTEWLDGVVARDEHGFILAGPDLRDVCGWTLERPPHHLETSVPGVFVAGDVRAESAKRVAAAVGEGSMAVMFVHRYLAES
B7: Ribonuclease E (RNase E) (EC 3.1.26.12) (protein, UniProt A0R152 1-1037)
chain: MAEDAHTEDLSTQTPQQEGLPERLRVHSLARVLGTTSRRVLDALAEFDGRQRSAHSTVDKADAERVRAALTESPAAETPPEEAPAAETPVADLVVVQAEQVEVVTVSEAGPAEPAEPAEPEAPAAEAEAEAETEVADEAETPEPTFRGAVLVGDEPESRLILEHANIPPARETQTERPDYLPLFVAPQPVSFEPAVVDDEDEDDDTETGAESDFDSGADSDSDDDQADRPRRRRRGRRGRGRGRGEQNDDATSDADTDSTEDQTDGDEQESGEDSDDSGDEDSTTTEGGTRRRRRRRRRKSGSGDSDDAVSPDDPPNTVVHERAPRTERSDKSDDSEIQGISGSTRLEAKRQRRRDGRDAGRRRPPILSEAEFLARREAVERTMIVRDKVRTEPPHEGARYTQIAVLEDGVVVEHFVTSAASASLVGNIYLGIVQNVLPSMEAAFVDIGRGRNGVLYAGEVNWEAAGLGGQNRKIEQALKPGDYVVVQVSKDPVGHKGARLTTQVSLAGRYLVYVPGASSTGISRKLPDTERQRLKEILREVVPSDAGVIIRTASEGVKEEDIRSDVERLQKRWSEIEAKAAEVTEKKAGAAVALYEEPDVLVKVIRDLFNEDFSSLIVSGDEAWNTINSYVEAVAPDLMPRLTKYEPAGPDAPDVFAVHRIDEQLAKAMDRKVWLPSGGTLVIDRTEAMTVVDVNTGKFTGSGGNLEQTVTRNNLEAAEEIVRQLRLRDIGGIVVIDFIDMVLESNRDLVLRRLTEALARDRTRHQVSEVTSLGLVQLTRKRLGTGLVEAFSTACTHCGGRGIVLHGDPIDSASSNGGRKSDSSGGGGSGGGRRGKRGKKGAARTEEVHVAKVPDHTPGEHPMFKAMAAANGKHEGDEDHEDHEDHETAEDTTAAEVRDDTRDEHDADERAHVVTAAVGAAGDEDLDDSDEDSDLDSDEESDDESDEDEIELDDDEDELDEDIEVIGDSDDSDDSDDSDEDDDSDDSDDDSDEDEDSDSDEDEEPVREVYEPPVTAPRARVRRRAAARPAGPPSHD
B8: ATP synthase subunit b-delta (protein, UniProt A0R203 1-445)
chain: MSIFIGQLIGFAVIAFIIVKWVVPPVRTLMRNQQEAVRAALAESAEAAKKLADADAMHAKALADAKAESEKVTEEAKQDSERIAAQLSEQAGSEAERIKAQGAQQIQLMRQQLIRQLRTGLGAEAVNKAAEIVRAHVADPQAQSATVDRFLSELEQMAPSSVVIDTAATSRLRAASRQSLAALVEKFDSVAGGLDADGLTNLADELASVAKLLLSETALNKHLAEPTDDSAPKVRLLERLLSDKVSATTLDLLRTAVSNRWSTESNLIDAVEHTARLALLKRAEIAGEVDEVEEQLFRFGRVLDAEPRLSALLSDYTTPAEGRVALLDKALTGRPGVNQTAAALLSQTVGLLRGERADEAVIDLAELAVSRRGEVVAHVSAAAELSDAQRTRLTEVLSRIYGRPVSVQLHVDPELLGGLSITVGDEVIDGSIASRLAAAQTGLPD

Protein sequences, listed by entry. Tags and fused reporters are not part of them. Residues count along the entry.
ClpC1^NTD (ClpC1 N-terminal domain alone, aa 1 to 147, C-terminal 3xFLAG) (A0R574, residues 1-147): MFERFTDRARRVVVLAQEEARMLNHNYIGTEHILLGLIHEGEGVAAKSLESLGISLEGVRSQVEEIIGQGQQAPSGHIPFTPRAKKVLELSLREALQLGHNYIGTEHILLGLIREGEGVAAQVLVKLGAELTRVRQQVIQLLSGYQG
ClpC1^CORE (ClpC1 lacking the NTD, aa 158 to 848, C-terminal 3xFLAG) (A0R574, residues 158-848): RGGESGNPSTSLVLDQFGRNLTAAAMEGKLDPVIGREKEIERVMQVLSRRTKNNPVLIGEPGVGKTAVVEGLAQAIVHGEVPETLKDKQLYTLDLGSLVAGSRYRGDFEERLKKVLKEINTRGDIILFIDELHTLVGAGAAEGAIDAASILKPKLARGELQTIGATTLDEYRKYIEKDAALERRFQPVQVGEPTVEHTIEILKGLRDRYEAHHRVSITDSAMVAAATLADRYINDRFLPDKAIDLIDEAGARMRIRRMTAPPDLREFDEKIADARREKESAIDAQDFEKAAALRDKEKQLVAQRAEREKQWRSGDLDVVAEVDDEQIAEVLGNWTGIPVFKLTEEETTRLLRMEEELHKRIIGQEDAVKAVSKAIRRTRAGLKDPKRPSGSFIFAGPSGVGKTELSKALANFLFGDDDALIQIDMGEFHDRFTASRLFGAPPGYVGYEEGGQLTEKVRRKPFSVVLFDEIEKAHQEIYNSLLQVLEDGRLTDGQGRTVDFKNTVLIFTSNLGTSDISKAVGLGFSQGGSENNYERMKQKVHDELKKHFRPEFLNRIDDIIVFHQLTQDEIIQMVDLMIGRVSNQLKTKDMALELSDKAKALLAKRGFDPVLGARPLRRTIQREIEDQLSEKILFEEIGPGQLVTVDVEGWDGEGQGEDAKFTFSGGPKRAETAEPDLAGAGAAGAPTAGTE

target: ClpC1^CORE (ClpC1 lacking the NTD, aa 158 to 848, C-terminal 3xFLAG) (M. smegmatis) (UniProt A0R574); experiment: affinity purification with mass spectrometry; 3xFLAG-tagged ClpC1 construct expressed in M. smegmatis MC2155; lysate incubated with anti-FLAG M2 beads 1 h at 4°C in 25 mM HEPES, 10 mM MgCl2, 200 mM KCl, 0.1 mM EDTA, 10 mM ATP, pH 7.5; SDS-PAGE, in-gel trypsin digestion, LC-MS/MS; proteins seen in at least two of three biological replicates; proteins of the empty vector control ignored

Row | binding | Binder
1 | binds | B1
2 | binds | B2
3 | binds | B3
4 | binds | B4
5 | binds | B5
6 | binds | B6
7 | binds | B7
8 | binds | B8

target: ClpC1^NTD (ClpC1 N-terminal domain alone, aa 1 to 147, C-terminal 3xFLAG) (M. smegmatis) (UniProt A0R574); experiment: as above

Row | binding | Binder
9 | binds | B1
10 | no binding | B2
11 | binds | B3
12 | binds | B4
13 | binds | B5
14 | binds | B6
15 | no binding | B7
16 | binds | B8

From paper PMC10433963
